Source: paper doi:10.1101/2022.11.16.516813
Results are given in words; binding and its absence hold for the method and conditions named. Binding seen in cells or lysates may run through a third protein. Some results given as binding are weak or reduced against the parent protein; the word gives no strength.

Target: T1, DDX47 (human (endogenous in HEK Expi293F)) (UniProt Q9H0S4)
T1 sequence: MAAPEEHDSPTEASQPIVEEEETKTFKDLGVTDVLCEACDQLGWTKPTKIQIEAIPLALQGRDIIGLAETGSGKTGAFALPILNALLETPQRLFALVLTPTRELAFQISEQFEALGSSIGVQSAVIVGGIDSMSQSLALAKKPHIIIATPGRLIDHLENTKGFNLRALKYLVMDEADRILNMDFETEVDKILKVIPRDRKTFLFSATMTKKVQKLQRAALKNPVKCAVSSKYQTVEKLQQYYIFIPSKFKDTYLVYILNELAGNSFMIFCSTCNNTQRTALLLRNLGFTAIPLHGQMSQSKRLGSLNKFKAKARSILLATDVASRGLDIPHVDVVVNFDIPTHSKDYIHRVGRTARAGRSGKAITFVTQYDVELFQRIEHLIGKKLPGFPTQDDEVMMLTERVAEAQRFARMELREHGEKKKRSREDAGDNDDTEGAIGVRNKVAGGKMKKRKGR
Assay: cross-linking

- binding: binds
B1: UTP25 (protein, UniProt Q68CQ4 1-756)
chain: MGKRGSRSQSQLLNTLTKKQKKHLRDFGEEHPFYDRVSRKEAKPQICQLSESSDSSDSESDSESEPQQVSGYHRLLATLKNVSEEEEEDEEEEEEEDSIVDDAEMNDEDGGSDVSVEEEMAAESTESPENVALSADPEGKEDGEEPPGTSQTSPEEFTDAKHESLFSLETNFLEEESGDNSSLKASQDPFLQHVNKELKEKAIQAVATNPKTTHELKWPILGQLFFSSKFQKLETFKPPKDIDLKSLHLQKPLESTWTKTNSQFLSGPQKSSSPFTPLQKELFLIMNSYRDLFYPERTALKNGEEIRHVYCLHVINHILKANAQVLGNNSRRRSQKFGVGDDDDFRDQGLTRPKVLIVVPFREAALRVVQLFISLLEGDSKKKIIVSNKKRFQGEYGSDPEERPPNLKRPEDYEAVFVGNIDDHFRIGVAILQRSIRLYAPFYSSDILIASPLGLRTIIGGEGEKKRDFDFLSSIELLIIDQADIYLMQNWEHVLHLMNHMNLLPLDSHGVDFSRVRMWSLNNWSKYYRQTLLFGALQDAQINSVFNKYCVNMQGQVAVRNVPMTGSISHVLVQLPHVFQRMEAENLASVIDARFNFFVNKILPQYRDAVMSHTLIYIPSYFDFVRLRNYFKKEELNFTHICEYTQKSGVSRARHFFLQGEKQFLLFTERFHFYKRYTIKGIRNLIFYELPTYPHFYSEICNMLRATNRGEEATWTCTVLYSKYDAQRLAAVVGVERAAQMLQSNKNVHLFITGEK
